In US20070004628A1 (SALK INSTITUTE FOR BIOLOGICAL STUDIES, published 2007):
Results are given in words; binding and its absence hold for the method and conditions named. For some of these results: In cells and extracts the contact can be indirect. For some of these results: Binding can be weak; no strength is given.

Legend:
[1] = target: c-Myc-tagged, full-length p75 fusion protein; assay: co-immunoprecipitation with anti-c-myc antibodies from co-transfected HEK293 lysates, Western blot
[2] = target: Troy; assay: immunoprecipitation
[3] = target: c-Myc-tagged, full-length p75 fusion protein; assay: co-immunoprecipitation from co-transfected HEK293 lysates, Western blot
[4] = target: Flag-tagged, truncated p75 lacking the p75 ECD (Flag-p75-TM-ICD); assay: co-immunoprecipitation with anti-Flag antibody from co-transfected HEK293 lysates, Western blot

binding [1]: binds | binding [2]: no binding | binding [3]: binds | binding [4]: binds
B1: full-length p45 (p45-FL) (receptor)
chain: MLYNVSKGVVYSDTALQGQDGDREGMWVGAGGALAPNTSSLFPPEPPGASSNIIPVYCALLATVILGLLAYVAFKCWRSHKQRQQLAKARTVELGDPDRDQRRGDSNVFVDSPPSLEPCIPSQGPHPDLGCQLYLHIPQQQQEEVQRLLMMGEPAKGWQELAGHLGYQAEAVETMACDQMPAYTLLRNWAAQEGNRATLRVLEDALAAIGREDVVQVLSSPAESSSVV
notes: Untagged full-length p45 expressed in HEK293 cells or from transfected capped RNA in CGNs; Also used here for endogenous p45 of P7 mouse cerebellum; also called PLAIDD; NRADD
